# Laboratory results from the supplement of paper PMC8256030.
# Where “and” joins values, the source holds several entries; their conditions need not be identical. Equal values may be shown once. The list shows a part of the results. Single values are uncertain here, since repeats match poorly.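 HEK293T cells were given each compound shortly before transfection with a reporter in which red mCherry is followed by the SARS-CoV-2 frameshift element and then GFP in the −1 frame, so GFP appears only after frameshifting.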
# Key:
# [1] = test system: SARS-CoV-2 -1 PRF reporter mCherry-FSE-GFP(-1); assay: mCherry (red) intensity as percent of control; higher = higher upstream reporter expression; settings: 10 µM; 24 h; HEK293T
# [2] = test system: SARS-CoV-2 -1 PRF reporter mCherry-FSE-GFP(-1); assay: percent effect, decrease of GFP/mCherry ratio (-1 PRF reporter) relative to controls; higher = stronger frameshift inhibition; settings: 10 µM; 24 h; HEK293T
SMILES,mCherry [1],percent effect [2]
CCC1C(=O)NC(=O)C1(C)c1ccccc1 (stereo unspecified) [fenimide],91.3%,-10.2%
CC(=O)Nc1ccc(OC(=O)c2ccccc2O)cc1 [acetaminosalol],101%,-1.93%
C[C@H]1[C@H](OC(=O)CCC(=O)O)O[C@@H]2O[C@@]3(C)CC[C@H]4[C@H](C)CC[C@@H]1[C@@]24OO3 [Artesunate],136%,-24.5%
CN1CCN(c2ncc(-c3cc(Cl)cc(Cl)c3Cl)c(N)n2)CC1 [sipatrigine],92%,-0.15%
NNCCc1ccccc1,114%,0.778%
C[N+](C)(C)CCO.[Cl-] [choline chloride],84.8%,-2.33%
N/C=C1\Cc2ccccc2C1=O [drinidene],82%,-5.86%
Cc1cccc(Nc2ccncc2S(=O)(=O)NC(=O)NC(C)C)c1 [Torasemide],84.5%,-0.234%
C[C@H](CCC(=O)NCCS(=O)(=O)O)[C@H]1CC[C@H]2[C@@H]3[C@@H](O)C[C@@H]4C[C@H](O)CC[C@]4(C)[C@H]3CC[C@]12C [Tauroursodeoxycholic acid],80.3%,-2.66%
CCOc1ccc(/C=C2\NCCc3cc(OCC)c(OCC)cc32)cc1OCC [Drotin],85.8%,-11.4%
CC(N)C12CC3CC(CC(C3)C1)C2 (stereo unspecified),101%,-2.39%
Clc1cccc(Cl)c1NC1=NCCN1 [clonidine],97.7%,-2.02%
Cc1c(Cl)cc(C(C)C)c(O)c1Cc1c(C)c(Cl)cc(C(C)C)c1O [biclotymol],84.3%,-9.38%
CCCCc1cc2ccccc2c(OCCN(C)C)n1 [quinisocaine],77.9%,-9.43%
CC(C)(C)c1ccc(CN2CCN(C(c3ccccc3)c3ccc(Cl)cc3)CC2)cc1 (stereo unspecified) [buclizine],104%,-2.4%
CC(Oc1ccccc1)C(=O)N[C@@H]1C(=O)N2[C@@H]1SC(C)(C)[C@@H]2C(=O)O (stereo partly specified) [pheneticillin],58.9%,1.64%
CNC(=O)OCc1cccc(COC(=O)NC)n1 [pyricarbate],94.5%,-0.346%
C1=CN2CC(c3cccs3)N=C2S1 (stereo unspecified) [antienite],95.5%,-1.66%
CC(Oc1c(Cl)cccc1Cl)C1=NCCN1 (stereo unspecified),90.7%,-1.23%
O/N=C/c1cc[n+](CCC[n+]2ccc(/C=N/O)cc2)cc1 [trimedoxime bromide],76.3%,-9.58%
Cc1cccc(Oc2cnc(=O)[nH]c2)c1 [tolimidone],101%,-1.41%
COc1ccccc1N1CCN(CCCNc2cc(=O)n(C)c(=O)n2C)CC1 [urapidil],113%,-1.59%
Cn1c(C#N)ccc1-c1ccc2c(c1)C(C)(C)OC(=S)N2 [tanaproget],95.7%,-10.9%
C#C[C@]1(OC(C)=O)CC[C@H]2[C@@H]3CCC4=C/C(=N/O)CC[C@@H]4[C@H]3CC[C@@]21CC,124%,3.77%
CCN(CC)CCCC(C)Nc1ccnc2cc(Cl)ccc12 (stereo unspecified),96%,-0.918%
COC(=O)[C@@H](N)CS,112%,-2.77%

# Quoted from the listing:
# CC(Oc1c(Cl)cccc1Cl)C1=NCCN1 (stereo unspecified) – percent effect [2]: -1.23%
# C1=CN2CC(c3cccs3)N=C2S1 (stereo unspecified) [antienite] – mCherry [1]: 95.5%
# CCOc1ccc(/C=C2\NCCc3cc(OCC)c(OCC)cc32)cc1OCC [Drotin] – mCherry [1]: 85.8%

# Continuation:

SMILES,mCherry [1],percent effect [2]
Nc1ccc(C(=O)O)c(O)c1,79.1%,-5.04%
CCCC(=O)Nc1ccc(OCC(O)CNC(C)C)c(C(C)=O)c1 (stereo unspecified) [acebutolol],89.1%,-7.25%
Nc1c(Br)cc(Br)cc1CN[C@H]1CC[C@H](O)CC1 [ambroxol],95% and 89.7%,-0.621% and 3.83%
CCC(CC)CC1(C(=O)Nc2ccccc2SC(=O)C(C)C)CCCCC1 [dalcetrapib],115%,-9.17%
C=C[C@@]1(C)CC(=O)[C@]2(O)[C@@]3(C)[C@@H](O)CCC(C)(C)[C@@H]3[C@H](O)[C@H](OC(C)=O)[C@@]2(C)O1 [colforsin],59.2%,-7.48%
CC(C)(C)NC(=O)[C@@H]1CN(Cc2cccnc2)CCN1C[C@@H](O)C[C@@H](Cc1ccccc1)C(=O)N[C@H]1c2ccccc2C[C@H]1O [indinavir],97.5%,-2.56%
C=Cc1cc(O)cc2nc(-c3ccc(O)c(F)c3)oc12 [prinaberel],65.7%,-5.36%
CO/N=C(\C(=O)N[C@@H]1C(=O)N2C(C(=O)O)=C(C[N+]3(C)CCCC3)CS[C@H]12)c1csc(N)n1,119%,-6.59%
OCC(CO)N[C@H]1C[C@](O)(CO)[C@@H](O)[C@H](O)[C@H]1O [voglibose],110%,-2.73%
CC(O)(P(=O)(O)O)P(=O)(O)O,102%,-7.17%
Clc1ccc(COC(Cn2ccnc2)c2ccc(Cl)cc2Cl)cc1 (stereo unspecified),112%,-4.71%
CCC[C@H](N[C@@H](C)C(=O)N1[C@H](C(=O)O)C[C@@H]2CCCC[C@@H]21)C(=O)O [perindoprilat],97.7%,-3%
CCCCC(O)c1ccccc1 (stereo unspecified) [fenipentol],109%,0.982%
COC(=O)Nc1nc2cc([S+]([O-])c3ccccc3)ccc2[nH]1 (stereo unspecified) [oxfendazole],105%,-1.37%
CN1CCC[C@H]1c1cccnc1,102%,-1.74%
OCc1ccccc1 [benzyl alcohol],119%,-1.61%
CC=CC(=O)N(CC)c1ccccc1C [Crotamiton],65.2%,-2.79%
C#C[C@]1(O)CC[C@H]2[C@@H]3CCC4=CC(=O)CC[C@@H]4[C@H]3C(=C)C[C@@]21CC [etonogestrel],111%,-2.37%
CN(C)CCOC(c1ccccc1)c1ccccc1.Cn1c(=O)c2[nH]c(Cl)nc2n(C)c1=O [dimenhydrinate],107%,-5.81%
COC(=O)c1ccc2c(C(=Nc3ccc(N(C)C(=O)CN4CCN(C)CC4)cc3)c3ccccc3)c(O)[nH]c2c1 [Nintedanib],106%,-1.81%
C=CCSCC1Nc2cc(Cl)c(S(N)(=O)=O)cc2S(=O)(=O)N1 (stereo unspecified) [altizide],117%,-5.96%
CCOP(=O)(Cc1ccc(C(=O)Nc2ccc(Br)cc2C#N)cc1)OCC [ibrolipim],55.4%,-10.7%
CCCCCCNC(=O)n1cc(F)c(=O)[nH]c1=O [carmofur],118%,6.62%
Cc1cc(N)c2ccccc2[n+]1CCCCCCCCCC[n+]1c(C)cc(N)c2ccccc21 [dequalinium chloride],97.9%,-1.76%
CO[C@@]1(NC(=O)CSCC#N)C(=O)N2C(C(=O)O)=C(CSc3nnnn3C)CS[C@@H]21 [Zefazone],118%,-10.7%
CC1(C)S[C@@H]2[C@H](NC(=O)[C@H](NC(=O)N3CCNC3=O)c3ccccc3)C(=O)N2[C@H]1C(=O)O [azlocillin],97.2%,-3.63%

SMILES,mCherry [1],percent effect [2]
CC1=C(/C=C/C(C)=C/C=C/C(C)=C\C(=O)O)C(C)(C)CCC1 [isotretinoin],105%,-5.69%
CCCc1nn(C)c2c(=O)[nH]c(-c3cc(S(=O)(=O)N4CCN(C)CC4)ccc3OCC)nc12 [sildenafil],104%,-6.72%
O=c1[nH]c(=O)n([C@H]2C[C@H](O)[C@@H](CO)O2)cc1Br [broxuridine],99.1%,-10%
CC(=O)O[C@]1(C(C)=O)CC[C@H]2[C@@H]3C=C(Cl)C4=CC(=O)[C@@H]5C[C@@H]5[C@]4(C)[C@H]3CC[C@@]21C [Cyproterone Acetate],81.8%,-4.4%
Oc1nc(O)c2cn[nH]c2n1 [oxipurinol],90.5%,-5.9%
COCCCC/C(=N\OCCN)c1ccc(C(F)(F)F)cc1 [fluvoxamine],118%,-1.88%
CC(C)NC[C@H](O)COc1ccc(CCOCC2CC2)cc1 [levobetaxolol],76.8%,0.193%
Cc1[nH]cnc1-c1ccc(Cl)cc1 [lofemizole],96.5%,-7.45%
C[C@@H]1C[C@H]2[C@@H]3C[C@H](F)C4=CC(=O)C=C[C@]4(C)[C@@]3(Cl)[C@@H](O)C[C@]2(C)[C@H]1C(=O)CO [clocortolone],46.7%,10.8%
Cc1ccnc2c1NC(=O)c1cccnc1N2C1CC1 [nevirapine],106%,-3.01%
CC(CN(C)C)CN1c2ccccc2Sc2ccc(C#N)cc21 (stereo unspecified) [cyamemazine],121%,-1.5%
CC(=O)N[C@@H](CC(=O)N[C@@H](CCC(=O)O)C(=O)O)C(=O)O [Spaglumic Acid],96.9%,-2.33%
CCOc1c(N2CCOCC2)cnn(C)c1=O [emorfazone],90.1%,0.116%
CC1CCCC(C)N1 (stereo unspecified) [nanofin],108%,-1.41%
O=C1C[C@@]2(C(=O)N1)C(=O)N(Cc1ccc(Br)cc1F)C(=O)c1cccn12 [ranirestat],112%,-3.85%
C[N+](C)(C)C[C@H](O)CC(=O)[O-] [levocarnitine],84.9%,-1.78%
Cc1cc(C(C)(C)CC(C)(C)C)ccc1OCCOCC[N+](C)(C)Cc1ccccc1 [methylbenzethonium chloride],118%,-9.07%
OCc1ccccn1,119%,-0.744%
NC[C@H]1O[C@H](O[C@H]2[C@H](O)[C@@H](O[C@H]3O[C@H](CO)[C@@H](O)[C@H](N)[C@H]3O)[C@H](N)C[C@@H]2N)[C@H](O)[C@@H](O)[C@@H]1O,113%,-1.69%
O=C(O)COc1ccc(C(=O)c2cccs2)c(Cl)c1Cl [tienilic acid],78.3%,-0.927%
COc1ccc(-c2cc(C(F)F)nn2-c2ccc(S(N)(=O)=O)cc2)cc1F [deracoxib],97.2%,-5.89%
C[C@](N)(Cc1ccc(O)c(O)c1)C(=O)O,124%,-4.25%
O=C([O-])c1ccccc1O.[Na+],114%,-5.77%
CCN(CC)CCC(=O)N1c2ccccc2Sc2ccc(C(F)(F)F)cc21 [fluacizine],97.4%,-0.918%
CCCCCCCCCCCC[N+](C)(C)CC(=O)OCC [laurcetium iodide],39.7%,-14.5%
CC[C@H](C)C(=O)O[C@H]1C[C@H](O)C=C2C=C[C@H](C)[C@H](CC[C@@H](O)C[C@@H](O)CC(=O)O)[C@H]21,84.4%,-4.58%
